Reference: PubChem BioAssay AID504764 (Drosophila RNAi Screening Center, 2011)

- Aim: 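Knock-downs that raise or lower a Notch target reporter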 (primary screen)
- Cells: Drosophila Kc167 cells
- Knock-down reagent: long dsRNA against Drosophila genes
- Timing: about 5 days (4 days dsRNA, then 24 h after transfection)
- Conditions: transfection of constitutively active membrane-tethered Notch lacking the extracellular domain, read 24 h later
- Measured: 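Light from a Notch-responsive E(spl)m3 luciferase reporter under active Notch, with control-promoter and no-Notch reporter wells to normalise; raw counts from paired wells a and b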
- Scale: induced reporter light, run 1, well a and induced reporter light, run 1, well b: higher = more light from the Notch target reporter with active Notch; control promoter light, run 1, well a and control promoter light, run 1, well b: higher = more light from the viral control promoter (cell number, transfection, viability); uninduced reporter light, run 1, well a: higher = more light from the Notch target reporter without active Notch
- Active means: 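Wells with low control signal or poorly matching duplicates excluded; duplicates averaged; per source plate, z beyond ±2 for induced/control log2 ratio or beyond ±1.8 for induced/uninduced marks a hit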
- Calls: active = modifier hit (raised or lowered Notch signal); inactive = not a hit
In all, the deposit lists about 22,000 reagents; below is an unselected part of those with a known target gene and a result. In the full data, 403 (1.9%) are marked active. 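Unnormalised raw counts per well; ratio z-scores behind the hit calls and whether each hit raises or lowers signal are not deposited.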 Not stated in the record: the amount of reagent.

gene	dsRNA	induced reporter light, run 1, well a	induced reporter light, run 1, well b	control promoter light, run 1, well a	control promoter light, run 1, well b	uninduced reporter light, run 1, well a	call
CG30203	DRSC06690	83910	1.05e5	1.24e5	1.18e5	8560	inactive
CG15237	DRSC04971	1.90e5	1.70e5	2.18e5	2.35e5	19892	inactive
da	DRSC03517	1.51e5	1.77e5	84535	1.09e5	14370	inactive
CG34198	DRSC05803	1.09e5	1.20e5	1.74e5	1.44e5	9185	inactive
CG18598	DRSC15356	1.96e5	1.83e5	2.53e5	2.16e5	13125	inactive
CG13893	DRSC08363	1.67e5	1.89e5	2.97e5	1.80e5	10455	inactive
Tim17a1	DRSC14184	69705	84785	72370	62045	5405	inactive
Ice2	DRSC14268	11320	14620	13050	12078	935	inactive
CG34460	DRSC06974	92675	1.08e5	1.07e5	1.12e5	10728	inactive
vex	DRSC19481	1.43e5	1.40e5	3.37e5	3.08e5	10225	inactive
vex	DRSC19651	1.45e5	1.30e5	2.57e5	2.71e5	8200	inactive
vex	DRSC21843						inactive
CG33120	DRSC02073	2.25e5	1.93e5	1.93e5	2.06e5	17855	inactive
CG13857	DRSC14707	1.67e5	1.51e5	1.69e5	1.68e5	12235	inactive
CG18063	DRSC01968	1.42e5	1.47e5	1.72e5	2.07e5	12590	inactive
twit	DRSC03210	2.24e5	2.46e5	1.76e5	1.71e5	16095	inactive
CG6443	DRSC02958	2.15e5	2.66e5	2.12e5	1.74e5	17365	inactive
mxc	DRSC17819	52090	50600	1.00e5	1.05e5	5185	inactive
NAAT1	DRSC18300	1.70e5	1.52e5	2.72e5	2.99e5	11535	inactive
CG12783	DRSC14538	3.04e5	2.73e5	2.88e5	2.82e5	20638	inactive
Brd	DRSC09685	1.80e5	1.88e5	1.75e5	1.60e5	6905	inactive
Cpr47Ef	DRSC06336	1.45e5	1.57e5	2.03e5	2.27e5	13615	inactive
Mrp4	DRSC14931	69245	65850	84340	57120	4928	inactive

Copied from the listing (6 entries):
gene	dsRNA	induced reporter light, run 1, well a	induced reporter light, run 1, well b	control promoter light, run 1, well a	control promoter light, run 1, well b	uninduced reporter light, run 1, well a	call
Tim17a1	DRSC14184	69705	84785	72370	62045	5405	inactive
Ice2	DRSC14268	11320	14620	13050	12078	935	inactive
CG34460	DRSC06974	92675	1.08e5	1.07e5	1.12e5	10728	inactive
vex	DRSC19481	1.43e5	1.40e5	3.37e5	3.08e5	10225	inactive
vex	DRSC19651	1.45e5	1.30e5	2.57e5	2.71e5	8200	inactive
vex	DRSC21843						inactive

Continued:
gene	dsRNA	induced reporter light, run 1, well a	induced reporter light, run 1, well b	control promoter light, run 1, well a	control promoter light, run 1, well b	uninduced reporter light, run 1, well a	call
CG11151	DRSC19387	48385	59015	58090	69780	11700	inactive
CG8303	DRSC07140	1.70e5	1.11e5	1.76e5	1.66e5	11955	inactive
Tsp29Fa	DRSC03232	99665	1.47e5	97525	1.14e5	17062	inactive
CG11857	DRSC14411	1.61e5	1.95e5	2.47e5	2.01e5	13835	inactive
CG6481	DRSC19995	1.12e5	1.21e5	1.04e5	88885	13050	inactive
Naprt	DRSC00630	74460	79370	66170	66625	5350	inactive
Grip	DRSC17940	23725	19295	16235	19620	6690	inactive
Grip	DRSC18395	1.45e5	1.70e5	3.35e5	3.68e5	11885	inactive
RASSF8	DRSC15707	1.57e5	1.44e5	2.02e5	2.08e5	11235	inactive
Ugt35B1	DRSC16893	1.74e5	1.07e5	1.04e5	90645	10155	inactive
Abi	DRSC14099	1.04e5	1.26e5	97990	75520	8725	inactive
Akap200	DRSC01864	2.08e5	2.10e5	3.01e5	2.60e5	15350	inactive
CG5292	DRSC15763	1.91e5	2.22e5	2.38e5	1.86e5	17535	inactive
CG10026	DRSC02010	92055	82390	93470	1.54e5	6450	inactive
CG13488	DRSC04133	40175	42570	54460	39820	3765	inactive
lmd	DRSC15618	1.62e5	1.87e5	2.17e5	2.25e5	12755	inactive
bib	DRSC03496	2.58e5	2.10e5	1.96e5	1.86e5	18740	inactive
CG11854	DRSC14409	1.44e5	1.32e5	1.70e5	1.84e5	11882	inactive
Polr2H	DRSC11642	34345	31220	21715	22890	2685	inactive
Rcd7	DRSC10100	1.70e5	1.29e5	1.35e5	1.22e5	11150	inactive
CG3430	DRSC02713	2.05e5	1.98e5	1.81e5	1.77e5	18615	inactive
mbf1	DRSC11365	1.70e5	1.76e5	1.20e5	99320	10455	inactive
CG6576	DRSC10663	2.01e5	2.14e5	2.40e5	2.41e5	11495	inactive
Sin3A	DRSC07552	1.64e5	1.70e5	1.17e5	1.10e5	6178	active
CG7781	DRSC03068	1.50e5	1.92e5	91860	1.40e5	22300	inactive
Pss	DRSC11757	1.23e5	1.06e5	93030	1.07e5	7015	inactive
su(r)	DRSC18705	1.85e5	1.55e5	2.63e5	2.25e5	11755	inactive
